Out of some 320,000 compounds screened, about 22,000 (6.9%) were called active. This list was built around the results that the source calls inconclusive (neither active nor inactive); the mix of calls is not that of the screen. Calls follow the shape of the dose curve; as a rule, active = well fitted inhibition curve with a large enough effect; inconclusive = small, poorly fitted or top-dose-only effect, or another doubt; inactive = no such curve, though single readings can be large or run the other way. Where the call is inconclusive, the potency comes from a doubtful curve fit.
Assay: Primary qHTS for delayed death inhibitors of the malarial parasite plastid, 96 hour incubation
Settings: P. falciparum luciferase reporter growth; series mostly up to 28.7 µM; activity change, negative = inhibition: at the top concentration
Procedure, shortened: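 Erythrocytes infected with luciferase-expressing P. falciparum were dispensed at 2% hematocrit and 0.05% parasitemia (final), then incubated with compounds 96 hours at 37 C in 5% CO2. Luminescence after detection reagent addition reported growth.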
% is scaled to controls: 0 for no effect and ±100 for the full control effect; potency is read from the fitted curve at half-maximal effect.

**Q.** For `COc1cccc(/C(O)=C2/C(=O)C(=O)N(CCCN3CCOCC3)C2c2ccncc2)c1` (stereo not given), which Potency is on record?
**A.** inconclusive: 20.8 µM [inhibitor, single point]

**Q.** Which “activity change, negative = inhibition” value does the source give for `CC(C)(C)C(=O)/C=c1\[nH]c(=O)/c(=C\c2ccccc2F)s1` here?
**A.** inactive: -28%

**Q.** For `O=S(=O)(c1ccc2ccccc2c1)N1CCN(CCO)CC1`, which “activity change, negative = inhibition” value is on record?
**A.** inactive: 7.95%

**Q.** For `COc1ccc(CCNC(=O)CSc2nnnn2-c2ccccc2OC)cc1OC`, which Potency is on record?
**A.** inconclusive: 18.5 µM [inhibitor, single point]

**Q.** For `CCSc1nnc(NC(=O)C2CC(=O)N(Cc3ccc(C)cc3)C2)s1` (stereo not given), which Potency is on record?
**A.** inconclusive: 14.7 µM [inhibitor, single point]

**Q.** Which Potency does the source give for `O=C1c2ccccc2C(=O)C1c1ccc(F)cc1` here?
**A.** inconclusive: 0.379 µM [inhibitor, partial curve, poor fit]

**Q.** With `O=C(CNC(=O)C1CCCCC1)OCn1nnc2ccccc2c1=O` as the compound, how does the “activity change, negative = inhibition” value read?
**A.** inactive: -8.9%

**Q.** For `O=C(c1ccc2nc(Cc3cccc(Cl)c3)oc2c1)N1CCC(O)CC1`, which Potency is on record?
**A.** inconclusive: 2.33 µM [inhibitor, full curve]

**Q.** For `Cc1cccc(NC(=O)CSc2nnc(Cn3nnc(-c4ccccc4)n3)n2-c2ccccc2)c1`, which Potency is on record?
**A.** inconclusive: 16.5 µM [inhibitor, single point]

**Q.** With `CC1(CCc2ccccc2)NC(=O)N(CC(=O)Nc2ccccc2C#N)C1=O` (stereo not given) as the compound, how does the “activity change, negative = inhibition” value read?
**A.** inactive: 12%

**Q.** With `CC(C)(C)c1ccccc1OCCCCCn1ccnc1` as the compound, how does the Potency read?
**A.** active: 5.86 µM

**Q.** With `C=CCn1c(=O)c2ccc(C(=O)NCc3ccccc3)cc2n(Cc2ccc(C)cc2)c1=O` as the compound, how does the Potency read?
**A.** active: 2.33 µM

**Q.** For `NS(=O)(=O)c1ccc(NC(=S)Nc2ccc(OCc3ccccc3)cc2)cc1`, which Potency is on record?
**A.** inconclusive: 18.5 µM [inhibitor, single point]

**Q.** With `CCn1ccnc1CN(C)Cc1cn(-c2ccccc2)nc1-c1ccc(OC)cc1F` as the compound, how does the Potency read?
**A.** inconclusive: 18.5 µM [inhibitor, single point]

**Q.** With `Cc1ccc(O)c(CNn2cnnc2)c1` as the compound, how does the Potency read?
**A.** inconclusive: 18.5 µM [inhibitor, single point]

**Q.** For `O=C1C2CCCCN2C(=O)N1CCCCN1CCN(c2cccc(Cl)c2)CC1` (stereo not given), which Potency is on record?
**A.** inconclusive: 16.5 µM [inhibitor, single point]

**Q.** Which Potency does the source give for `CCN(CC)C(=O)C1=C(C)NC(=S)NC1c1cn(-c2ccccc2)nc1-c1ccc(Cl)cc1` (stereo not given) here?
**A.** inconclusive: 0.0465 µM [inhibitor, full curve]

**Q.** Which Potency does the source give for `CC1(C)CC(=O)C=C(NC2CCCCCC2)C1` here?
**A.** active: 11.7 µM

**Q.** Which Potency does the source give for `O=c1cc2n(c(=O)[nH]1)CCC1=C2CCCC1` here?
**A.** inconclusive: 4.65 µM [inhibitor, partial curve, poor fit]

**Q.** Which “activity change, negative = inhibition” value does the source give for `Cc1ccc(C)c(NCC(=O)c2ccc(Cl)cc2)c1` here?
**A.** inactive: -8.99%

**Q.** With `N#Cc1ccccc1OCC(=O)Nc1c(C(=O)C2CC2)oc2ccccc12` as the compound, how does the Potency read?
**A.** inconclusive: 18.5 µM [inhibitor, single point]

**Q.** With `COc1cc(OC)c(N(C)C(=O)c2cn(C)c(=O)c3cc(OC)c(OC)cc23)cc1Cl` as the compound, how does the “activity change, negative = inhibition” value read?
**A.** inactive: 22.9%

**Q.** Which Potency does the source give for `COc1cccc(CNC(=O)C2CCN(c3cnccn3)CC2)c1` here?
**A.** inconclusive: 0.0104 µM [inhibitor, full curve, poor fit]

**Q.** With `O=C(Nc1nc2c(F)cc(F)cc2s1)c1ccc2c(c1)OCCO2` as the compound, how does the “activity change, negative = inhibition” value read?
**A.** inactive: 39.7%

**Q.** For `CCCCN(C(=O)CCC(=O)Nc1cc(C)on1)C(C(=O)NC(C)(C)C)c1ccccc1Cl` (stereo not given), which Potency is on record?
**A.** inconclusive: 4.65 µM [inhibitor, partial curve]

**Q.** For `COCCNC(=O)C(c1ccc(C)cc1)N(C(=O)C(=O)NC1CCCC1)c1ccc2c(c1)OCCO2` (stereo not given), which “activity change, negative = inhibition” value is on record?
**A.** inactive: -28.4%

**Q.** For `Cc1ccccc1-c1nnn(CC(=O)NCc2ccc3c(c2)OCO3)n1`, which “activity change, negative = inhibition” value is on record?
**A.** inactive: 24.5%

**Q.** For `O=C(CSc1nc2c(c(=O)n1-c1ccc(Cl)cc1)SCC2)NCc1ccco1`, which Potency is on record?
**A.** inconclusive: 9.28 µM [inhibitor, single point]

**Q.** With `N/C(=N\c1nc2ccccc2o1)NC(=O)c1ccc(F)cc1` as the compound, how does the “activity change, negative = inhibition” value read?
**A.** inactive: 156%

**Q.** Which Potency does the source give for `CCN1CCC(Nc2ccnc3cc(Cl)ccc23)CC1` here?
**A.** active: 0.0041 µM

**Q.** Which Potency does the source give for `Cc1[nH]c(=O)[nH]c(=O)c1NC(=O)CSc1ncccc1-c1nc2ccccc2[nH]1` here?
**A.** inconclusive: 18.5 µM [inhibitor, single point]

**Q.** For `Cc1cccc2sc(N(CCCN(C)C)C(=O)c3ccc(S(=O)(=O)N4CCc5ccccc5C4)cc3)nc12`, which Potency is on record?
**A.** inconclusive: 9.28 µM [inhibitor, single point]

**Q.** With `Cc1ccc(NC(=O)c2nc[nH]c2C(=O)NCC(=O)OC(C)(C)C)cc1` as the compound, how does the “activity change, negative = inhibition” value read?
**A.** inactive: 12.4%

**Q.** Which “activity change, negative = inhibition” value does the source give for `Fc1ccccc1COc1ccc(/C=N/n2cnnc2)cc1` here?
**A.** inactive: -11%

**Q.** With `CN(C)c1ccc(-c2cccc(C3CC=CC4C3C(=O)N(Cc3ccccc3)C4c3ccc(C(F)(F)F)cc3)c2)cc1` (stereo not given) as the compound, how does the Potency read?
**A.** inconclusive: 9.28 µM [inhibitor, single point]

**Q.** With `Cc1cc(C)n(-c2nc3ccccc3nc2N2CCCCCC2)n1` as the compound, how does the “activity change, negative = inhibition” value read?
**A.** inactive: -13.7%

**Q.** Which Potency does the source give for `CC(=O)Nc1ccccc1NC(=O)C/C(C)=N/NC(=O)Cc1cccc2ccccc12` here?
**A.** inconclusive: 1.47 µM [inhibitor, partial curve]

**Q.** For `CCC(c1nc2ccccc2c(=O)n1-c1nc2ccccc2s1)N1C(=O)c2ccccc2C1=O` (stereo not given), which Potency is on record?
**A.** inconclusive: 11.7 µM [inhibitor, single point]

**Q.** With `COc1ccc2c(c1OC)C(=O)OC2c1c(O)n(Cc2ccc(F)cc2)c(=O)[nH]c1=O` (stereo not given) as the compound, how does the Potency read?
**A.** inconclusive: 18.5 µM [inhibitor, partial curve, poor fit]

**Q.** With `Cc1cc(Cl)c2oc(C(=O)N(CCO)Cc3ccccc3)c(C)c2c1` as the compound, how does the Potency read?
**A.** inconclusive: 10.4 µM [inhibitor, single point]

**Q.** Which Potency does the source give for `COc1cccc(C(=O)Nc2cccc(NC(C)=O)c2)c1` here?
**A.** inconclusive: 1.04 µM [inhibitor, partial curve, poor fit]

**Q.** With `O=C(Cc1ccc(F)cc1)Nc1ccc(F)c([N+](=O)[O-])c1` as the compound, how does the Potency read?
**A.** inconclusive: 1.65 µM [inhibitor, full curve, poor fit]

**Q.** With `CCOc1cccc(OCCOc2ccc(C(=O)c3ccccc3)cc2)c1` as the compound, how does the Potency read?
**A.** inconclusive: 18.5 µM [inhibitor, single point]

**Q.** For `O=C1CN(CC(=O)N2CCCCC2)c2ccccc2O1`, which Potency is on record?
**A.** inconclusive: 16.5 µM [inhibitor, single point]

**Q.** Which Potency does the source give for `COc1ccc(S(=O)(=O)Nc2ccccc2C(=O)Nc2nc(-c3ccc(F)cc3)cs2)cc1OC` here?
**A.** inconclusive: 1.04 µM [inhibitor, full curve, poor fit]

**Q.** With `O=C(Nc1ccc(Oc2ccccc2)cc1)C1CCCO1` (stereo not given) as the compound, how does the “activity change, negative = inhibition” value read?
**A.** inactive: 20.7%

**Q.** With `O=C(Cc1csc(N2CCOCC2)n1)N/N=C/c1ccccc1C(=O)O` as the compound, how does the “activity change, negative = inhibition” value read?
**A.** inactive: 16.6%

**Q.** With `COc1ccccc1C(=O)Nc1nnc(CCc2ccccc2)s1` as the compound, how does the Potency read?
**A.** inconclusive: 0.586 µM [inhibitor, full curve, poor fit]

**Q.** With `Cc1cc(-c2nc3ncccc3o2)ccc1NC(=S)NC(=O)C(C)C` as the compound, how does the “activity change, negative = inhibition” value read?
**A.** inactive: 40.1%

**Q.** For `O=C(COc1cccc(F)c1)Nc1nc(-c2ccncc2)cs1`, which Potency is on record?
**A.** inconclusive: 13.1 µM [inhibitor, partial curve, poor fit]

**Q.** Which “activity change, negative = inhibition” value does the source give for `CCOC(=O)c1cnc2nc[nH]n2c1=O` here?
**A.** inactive: 12.5%

**Q.** With `Cc1ccc(Cl)cc1N1CCN(S(=O)(=O)c2ccc3[nH]c(=O)c(=O)[nH]c3c2)CC1` as the compound, how does the “activity change, negative = inhibition” value read?
**A.** inactive: 31.3%

**Q.** Which Potency does the source give for `CCC(=O)N1CC(=O)Nc2ccc(F)cc2C1c1ccccc1` (stereo not given) here?
**A.** inconclusive: 7.38 µM [inhibitor, partial curve, poor fit]

**Q.** With `CN(Cc1ccco1)C(=O)Cn1c(=O)oc2cc(S(=O)(=O)NCc3ccccc3)ccc21` as the compound, how does the “activity change, negative = inhibition” value read?
**A.** inactive: -109%

**Q.** With `Cc1ccsc1-c1n[nH]c(=S)n1CC(C)C` as the compound, how does the “activity change, negative = inhibition” value read?
**A.** inactive: 7.11%

**Q.** For `N#Cc1c(Nc2ccccc2Cl)s[nH]c1=O`, which “activity change, negative = inhibition” value is on record?
**A.** inactive: -18.4%

**Q.** With `O=C(Nc1ccc2c(c1)OCCO2)c1cc(-c2ccccc2)nc2ccccc12` as the compound, how does the Potency read?
**A.** inconclusive: 14.7 µM [inhibitor, partial curve, poor fit]

**Q.** For `O=[N+]([O-])c1cccc(Cl)c1N1CCOCC1`, which Potency is on record?
**A.** inconclusive: 18.5 µM [inhibitor, single point]

**Q.** For `O=C1C2C3C=CC(C2C(=O)N1C1CCCCC1)C1C2C(=O)N(C4CCCCC4)C(=O)C2C31` (stereo not given), which Potency is on record?
**A.** inconclusive: 18.5 µM [inhibitor, single point]

**Q.** For `Cc1ccc(CNC(=O)C2CCC(=O)N(CCc3ccc(Cl)cc3)C2)cc1` (stereo not given), which Potency is on record?
**A.** active: 9.28 µM

**Q.** With `CC(=O)c1ccc(S(=O)(=O)N(CCCO)Cc2cc3cc4c(cc3[nH]c2=O)OCCO4)cc1` as the compound, how does the Potency read?
**A.** inconclusive: 5.86 µM [inhibitor, partial curve]

**Q.** Which Potency does the source give for `NS(=O)(=O)c1ccc(CNC(=S)NCc2ccc(F)cc2)cc1` here?
**A.** active: 10.4 µM

**Q.** With `CCC(=O)c1cn([C@H](CCC(OC)OC)CC(=O)OC(C)(C)C)cc1CC` as the compound, how does the Potency read?
**A.** inconclusive: 13.1 µM [inhibitor, single point]

**Q.** Which Potency does the source give for `O=C1/C(=C\c2c(NCCOCCO)nc3ccccn3c2=O)SC(=S)N1Cc1ccco1` here?
**A.** inconclusive: 18.5 µM [inhibitor, single point]

**Q.** With `CCOC(=O)c1ccc(NC(=O)c2cccc3c2C(=O)N(CC2CCCO2)C3)cc1` (stereo not given) as the compound, how does the Potency read?
**A.** inconclusive: 18.5 µM [inhibitor, single point]

**Q.** For `Clc1ccc(OCc2nc3ccccc3[nH]2)cc1`, which Potency is on record?
**A.** inconclusive: 0.0093 µM [inhibitor, full curve, poor fit]

**Q.** For `O=C(Nc1cccc(C(F)(F)F)c1)OCCN1CCN(Cc2ccccc2)CCC1=O`, which Potency is on record?
**A.** inconclusive: 10.4 µM [inhibitor, single point]

**Q.** With `Cc1ccc(Nc2ccc([N+](=O)[O-])nc2[N+](=O)[O-])cc1` as the compound, how does the Potency read?
**A.** inconclusive: 18.5 µM [inhibitor, single point]

**Q.** With `CCOC(=O)C1=C(c2ccccc2)OC(N)=C(C#N)C1c1ccc(Br)s1` (stereo not given) as the compound, how does the “activity change, negative = inhibition” value read?
**A.** inactive: 7.2%

**Q.** Which Potency does the source give for `CC1(c2ccccc2)NC(=O)N(CC(=O)Nc2nc(-c3ccccn3)cs2)C1=O` (stereo not given) here?
**A.** inconclusive: 0.0185 µM [inhibitor, full curve, poor fit]

Source: PubChem BioAssay AID504834 (National Center for Advancing Translational Sciences (NCATS), 2011)
